Data reported in article PMC4891030.
No constants are given. Whether binding was seen depends on the method and setting. In cells and extracts the contact can be indirect. Some entries that bind do so weakly or less than the wild type.

Sequences of proteins named here, by UniProt entry; tags and fusion partners are left off. Residues count along the entry.
UniProt P11021, residues 19-654: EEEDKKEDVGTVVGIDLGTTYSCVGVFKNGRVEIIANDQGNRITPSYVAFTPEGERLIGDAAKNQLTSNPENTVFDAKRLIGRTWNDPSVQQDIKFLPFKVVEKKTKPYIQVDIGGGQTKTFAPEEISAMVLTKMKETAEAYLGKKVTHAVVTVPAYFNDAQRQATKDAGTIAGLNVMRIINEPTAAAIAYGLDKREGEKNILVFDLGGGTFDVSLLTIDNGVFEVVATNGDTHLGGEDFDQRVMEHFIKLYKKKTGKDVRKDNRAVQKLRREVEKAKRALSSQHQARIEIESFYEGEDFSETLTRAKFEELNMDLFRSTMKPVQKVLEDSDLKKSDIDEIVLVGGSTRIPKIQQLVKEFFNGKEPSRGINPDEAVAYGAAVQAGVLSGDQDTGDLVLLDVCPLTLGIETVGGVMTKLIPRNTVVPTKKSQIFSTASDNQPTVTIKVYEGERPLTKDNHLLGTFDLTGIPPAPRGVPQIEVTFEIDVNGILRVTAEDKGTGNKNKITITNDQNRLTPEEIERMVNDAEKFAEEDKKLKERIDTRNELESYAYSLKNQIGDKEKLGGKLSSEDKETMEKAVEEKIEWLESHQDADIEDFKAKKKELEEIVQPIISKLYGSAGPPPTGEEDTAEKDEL

Biological target: epidermal growth factor receptor (human (endogenous in H1299)) (UniProt P00533)
Experiment: co-IP; reciprocal co-immunoprecipitation of endogenous EGFR and BIP from lysates of MIIP-HA-overexpressing or control H1299 cells; lysis in 50 mM Tris-HCl pH 7.5, 0.15 M NaCl, 1% Nonidet P-40; overnight with primary antibody, Protein G Plus-Agarose, four washes; blank protein G beads as negative control

- binding: binds
Substance: BIP (from UniProt P11021 19-654)
